Data published in the supplement of paper PMC3334620.
In all, about 33,000 sequences were measured (“E-score (-0.5 to 0.5)”: median about -0.0014, highest 2% from about 0.25 on). The list shows a part of the results.

Target: T1, Cad1 (UniProt P24813)
T1 sequence: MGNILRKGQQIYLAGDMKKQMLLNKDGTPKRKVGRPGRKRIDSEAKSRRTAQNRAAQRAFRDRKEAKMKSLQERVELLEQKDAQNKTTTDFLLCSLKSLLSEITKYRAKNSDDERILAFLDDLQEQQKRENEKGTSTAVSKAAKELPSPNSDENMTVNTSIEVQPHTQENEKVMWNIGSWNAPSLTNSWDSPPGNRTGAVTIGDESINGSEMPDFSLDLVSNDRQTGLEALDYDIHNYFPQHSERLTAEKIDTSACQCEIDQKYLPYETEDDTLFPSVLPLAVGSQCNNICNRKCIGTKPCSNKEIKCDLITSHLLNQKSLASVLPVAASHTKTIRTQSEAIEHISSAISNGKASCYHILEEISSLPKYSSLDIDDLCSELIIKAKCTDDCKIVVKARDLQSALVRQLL
Assay: PBM E-score (8-mer binding enrichment) (E-score (-0.5 to 0.5)); higher = stronger / more preferred TF binding
Conditions: protein concentration: 100 nM; construct: GST-full length
Method in brief: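 Full-length yeast transcription factors or their DNA-binding domains, GST-tagged and expressed with PURExpress, were applied at about 100-200 nM to universal all-10-mer Agilent arrays. These arrays had been made double-stranded by primer extension on fresh or once-stripped slides. Detection used fluorescent anti-GST, normalisation used masliner, and E-scores for ungapped eight-base words pooled with reverse complements came from the Universal PBM Analysis Suite.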

Sequence	PBM E-score
ACCAAGGT	-0.041
TCTGTAAA	-0.152
CCTACTTA	-0.012
ACAGACAA	0.29
GCTGGCCA	-0.0476
ATCTACAG	-0.00523
GAGCTCAC	-0.0859
CAATGTGA	0.131
AGACGGGC	-0.0989
AAGTCTCT	-0.189
ACGGATTC	0.172
TATGCGGA	0.00476
CAGGGACA	0.00346
GTATTTCA	0.144
AGCTCGGA	-0.06
CGCACGCA	0.0445
CACCGATA	-0.0463
ATCTCAGA	-0.0514
CCCTTCAG	-0.0567
AGTTATGG	-0.0184
GACTACGA	-0.0382
GATGTACC	-0.00013
GAAGCCCA	-0.168
AACCGGGC	-0.0306
ATGATGCC	-0.0995

Sequence	PBM E-score
ATTCACGC	0.0118
CCGGCAGG	-0.0958
CCTTTGAG	-0.162
CTCATATC	-0.185
TATGGTCA	0.0818
CCGGTGCA	-0.0936
AGCTGTAA	-0.0875
ATTGAGCC	0.0356
CAGTCTCC	-0.109
CATAAAGG	-0.0983
CAGTTTGC	0.0526
CCTCCTAA	-0.104
ATAAAAAC	0.23
CACCAGGC	-0.0805
GATAGACC	0.0367
TAAGTAGA	0.0408
TATAAGGA	0.0915
CACCTAAG	0.045
GGATATAC	0.0894
CATTCCGC	-0.0414
ATAGACAG	0.0692
TACGTAGA	0.051
ACAGCTCA	-0.0909
AAGTATTC	0.0408
AGAGTGCT	0.0363

Sequence	PBM E-score
CTCGGTTC	-0.0565
ATCATAAT	0.144
CGGCGTTA	-0.177
CAGCTCAA	-0.0276
ATTTGGCC	0.108
AACGCCTT	-0.118
CGTCGCAA	0.0357
CGTCGGCA	0.148
CCCTGCGA	-0.157
CCTACCAA	0.0782
AGGGTGCA	0.0699
CGGCGTGA	-0.0286
CTTTCTGA	0.0767
AACTTGAA	0.109
GCACAGGA	0.076
GTCAAAGA	-0.157
AATCCGCT	-0.0112
AAATCACC	0.0779
CAAGTATC	0.00476
ACATCGCA	-0.134
CATCAGGC	0.0343
GCTTCGTA	-0.0537
CCCCCATA	-0.331
GCCCGTTA	-0.142
ATATGCTG	0.00054

Sequence	PBM E-score
CAAGATGC	0.249
GCAATACA	0.291
AGTCACTA	0.0232
ACGAGGTG	0.0508
ATAAAATC	0.0813
ATCGTTAC	0.0243
GCCCGAGC	-0.0893
ACAATGTA	0.0306
TCACATAA	0.162
ATAGGTTG	-0.0699
ACCACGCT	-0.176
GAGAGTAA	0.137
AAAACAAG	-0.00051
CGTGCGAG	0.0963
CGCATTAG	0.106
CTTACGAC	-0.0445
AAAGTCAG	0.0103
ACGCGTAC	0.215
GATACGCC	0.0938
CAGTGTGG	-0.15
AGCACGTA	-0.0687
GCCCCTAA	-0.125
CAAACTGC	-0.0471
CAGCCTAC	-0.0684
CGCGGGCA	0.228

Sequence	PBM E-score
CCTCGCCG	-0.151
CTCTACGC	-0.109
AAGCGTAT	-0.0193
AATTAACT	0.0573
AAGCGCTA	0.107
ACGGGCGC	0.0801
CAGTCCAG	-0.0544
AGATAAAC	0.123
CGTAAGCA	0.232
CTTGGGGC	-0.162
CGGGCCAG	-0.0841
GGCCCAAA	-0.0127
CAGCGCAA	-0.0285
AAGACATG	-0.208
GAATGTGC	-0.0206
ATCATGAA	0.177
ACTGGACC	-0.049
AGGTCGGG	-0.144
GCAGAAGC	-0.0325
GACGCTCA	-0.024
ACAGTTAT	0.00233
AGCTAGCA	-0.0255
AGATGTTG	-0.0315
ATGAGGGA	-0.218
AGTTTAAA	0.106

Sequence	PBM E-score
GACCCCAA	-0.0199
AGCCAGGG	-0.207
ACTGGATG	-0.0232
AATGCAGT	0.0913
CCATGTGC	0.05
CCACACCG	0.0132
CCTGCGAC	-0.118
CAGCAGCG	0.11
AGCCTCTC	-0.224
CAGAAGTC	-0.13
TATAGCAA	0.00281
GACTGTCA	-0.046
CAAGGGAA	0.034
CTTTAATC	-0.00133
CATACGTC	-0.175
ACCGCGCC	0.0081
AGTGAACC	0.101
CACGAAAG	0.0698
GTCTTAAA	-0.0335
CAGCCAGC	-0.108
ATAAGACC	-0.18
GGCGTCCC	-0.213
ATAATCTA	0.185
CGCCCTAA	-0.114
CTGTCCCC	-0.119

Looked up above.
PBM E-score with CATACGTC reads -0.175
PBM E-score with ACTGGATG reads -0.0232
PBM E-score with AATGCAGT reads 0.0913

Next results:

Sequence	PBM E-score
GACACCAA	0.0633
CGCCGGAA	0.0602
AACCTTGA	0.0727
ACCGGCCT	-0.0659
CTACTCGC	0.0123
TGCTGCAA	0.153
CCGACCAG	-0.0271
ATAGGTGA	-0.0537
GATTATAC	0.0962
AAGCCAGG	-0.155
ATCCCCGC	-0.00423
CATGACTC	-0.146
CTGGTGCA	-0.264
CCGGAACC	0.0783
CAGAGCAA	-0.0906
ACCGGAAA	0.135
GGATTTAA	0.0137
CTGTGATC	-0.0125
TCCCCCAA	-0.221
TGGCGGAA	-0.14
GCCCATAC	-0.1
AAATCTAT	0.0783
CAGCCTGC	-0.208
CTAAGCGC	0.166
CCGTTCCG	0.0271

Sequence	PBM E-score
CGATGTAC	0.0236
ACAAGCAA	0.0592
AAGGACGG	-0.226
CTCGGACC	0.106
GAATAATC	0.201
ACCCCAGA	-0.287
AGCTGCCG	0.0343
GTCTACAA	-0.119
AGACCCAG	-0.206
ACCCGCCA	0.133
GTCTGAAA	0.0244
AACCGTAA	-0.0296
CAGATTAA	0.162
AACGAGAG	-0.0581
TAGAGCTA	-0.158
GGCGCCTA	-0.0479
AATACGGA	0.077
CTTTGTTC	0.0827
CCCACGGA	-0.117
AGATTAAT	0.16
AAGGGTGT	0.031
GGTCTCAC	-0.0634
ATGGTACG	0.0436
AATTCGTG	-0.14
ATGCACAC	0.125

Laid out differently: results already given.
Sequence,PBM E-score
CAGATTAA,0.162
AACGAGAG,-0.0581

Further results.

Sequence	PBM E-score
CGAACTTC	0.129
CATGATAG	0.0205
CAAAGCGA	0.0638
CCTTGCTC	-0.0109
GGTCTGCA	0.0477
AAAGGGAC	-0.139
ATTTCGGG	-0.034
ACGCTCAT	0.109
CGCTACGC	-0.105
ACCGGGTC	-0.125
CTACGATC	0.0442
ACATTTAC	-0.0798
CGGCGTAG	-0.0527
ACAATTGC	0.158
CTTTATAA	0.101
ACTCGACA	0.214
ACTGGTAT	-0.044
CTCTGTCA	0.0441
CCTAGTGA	-0.171
